Results on 13 molecules are retold here after article PMC11994786.

The chains behind the UniProt entries cited, without tags or fusion partners.
UniProt P69566: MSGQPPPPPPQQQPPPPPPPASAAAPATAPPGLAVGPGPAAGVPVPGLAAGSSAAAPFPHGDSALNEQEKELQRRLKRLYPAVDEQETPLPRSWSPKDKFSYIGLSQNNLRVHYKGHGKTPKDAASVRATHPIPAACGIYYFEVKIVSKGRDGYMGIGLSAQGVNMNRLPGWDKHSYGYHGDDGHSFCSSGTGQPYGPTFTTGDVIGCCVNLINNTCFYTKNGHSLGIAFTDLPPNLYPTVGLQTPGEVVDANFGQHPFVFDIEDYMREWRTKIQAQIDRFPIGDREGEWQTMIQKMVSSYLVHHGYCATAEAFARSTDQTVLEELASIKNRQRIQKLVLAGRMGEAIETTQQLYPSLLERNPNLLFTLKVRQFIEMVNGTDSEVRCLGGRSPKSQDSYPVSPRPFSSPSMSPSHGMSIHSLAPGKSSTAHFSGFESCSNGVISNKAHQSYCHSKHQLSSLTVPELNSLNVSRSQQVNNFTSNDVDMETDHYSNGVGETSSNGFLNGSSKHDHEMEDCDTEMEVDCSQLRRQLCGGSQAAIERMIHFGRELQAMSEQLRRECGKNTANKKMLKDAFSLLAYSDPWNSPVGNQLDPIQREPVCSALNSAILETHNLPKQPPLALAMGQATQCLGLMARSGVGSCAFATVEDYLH

Experiment [1] addresses RanBP9-V5 (Ran Binding Protein 9 with a V5 tag at the C-terminus) (mouse) (UniProt P69566). In words: affinity purification with mass spectrometry; anti-V5 magnetic beads on 1 mg pre-cleared whole lung lysate of LysMBP9X mice, overnight at 4 °C, on-bead trypsin digestion, LC-MS/MS; hits significant (p ≤ 0.05) against V5-IP from WT mice and Ig-IPs.
The target of experiment [2] is RanBP9-3xHA (Ran Binding Protein 9 fused to three copies of the HA tag) (mouse) (UniProt P69566). Kind of experiment: affinity purification with mass spectrometry; anti-HA magnetic beads on 1 mg pre-cleared whole lung lysate of LysMBP9X mice, overnight at 4 °C, on-bead trypsin digestion, LC-MS/MS; hits significant (p ≤ 0.05) against HA-IP from WT mice and Ig-IPs.

No constants are given. Whether binding was seen depends on the method and setting. In cells and extracts the contact can be indirect. These calls come from enrichment with a bait or labelling near it, and not all partners need be listed.

B1: Ggh (Gamma-Glutamyl Hydrolase) (protein, UniProt Q9Z0L8 25-317)
chain: RPYNHGSERPIIGVVMQECFGKMAKLGNYYIAASYVKYIESAGARVVPIRPDLSDAEYEELFRSINGVLLPGGGANLTDSGYSRVAKIFFSKALESFDNGDHFPVWGTCLGFEELSVLVSGENLLTSTDTKSKKLPLNFTEGARKSRMFKHFPTELLDSLALENLTANFHKWSLSVKNFTENEKLKKFFNILTTNTDGKTEFISSMEGFKYPVYAVQWHPEKAAFEWKNLGGISHAPNAVKTSFYLAEFLVSEARKNSHHFENVVKETASLIYKFNPIYTGNISSFQQAYMFD
For the molecule B1, the binding entry in experiment [1] is “binds”.

B2: Cyb5b (protein, UniProt Q9CQX2 12-146)
chain: KVEGSEPSVTYYRLEEVAKRNSAEETWMVIHGRVYDITRFLSEHPGGEEVLLEQAGADATESFEDVGHSPDAREMLKQYYIGDVHPSDLKPKGDDKDPSKNNSCQSSWAYWFVPIVGAILIGFLYRHFWADSKSS
Turning to B2, in experiment [1], the binding result is recorded as “binds”.

B3: Phkb (Phosphorylase kinase regulatory subunit b) (protein, UniProt Q7TSH2 1-1085)
chain: MANSPDAAFSSPALLRSGSVYEPLKSINLPRPDNETLWDKLDHYYRIVKSTMLMYQSPTTGLFPTKTCGGEEKSKVHESLYCAAGAWALALAYRRIDDDKGRTHELEHSAIKCMRGILYCYMRQADKVQQFKQDPRPTTCLHSVFSVHTGDELLSYEEYGHLQINAVSLFLLYLVEMISSGLQIIYNTDEVSFIQNLVFCVERVYRVPDFGVWERGSKYNNGSTELHSSSVGLAKAALEAINGFNLFGNQGCSWSVIFVDLDAHNRNRQTLCSLLPRESRSHNTDAALLPCISYPAFALDDEALFSQTLDKVIRKLKGKYGFKRFLRDGYRTPLEDPNRRYYKPAEIKLFDGIECEFPIFFLYMMIDGVFRGNLEQVKEYQDLLTPLLHQTTEGYPVVPKYYYVPADFVECEKRNPGSQKRFPSNCGRDGKLFLWGQALYIIAKLLADELISPKDIDPVQRFVPLQNQRNVSMRYSNQGPLENDLVVHVALVAESQRLQVFLNTYGIQTQTPQQVEPIQIWPQQELVKAYFHLGINEKLGLSGRPDRPIGCLGTSKIYRILGKTVVCYPIIFDLSDFYMSQDVLLLIDDIKNALQFIKQYWKMHGRPLFLVLIREDNIRGSRFNPILDMLAAFKKGIIGGVKVHVDRLQTLISGAVVEQLDFLRISDTEKLPEFKSFEELEFPKHSKVKRQSSTADAPEAQHEPGITITEWKNKSTHEILQKLNDCGCLAGQTILLGILLKREGPNFITMEGTVSDHIERVYRRAGSKKLWSVVRRAASLLNKVVDSLAPSITNVLVQGKQVTLGAFGHEEEVISNPLSPRVIKNIIYYKCNTHDEREAVIQQELVIHIGWIISNSPELFSGMLKIRIGWIIHAMEYELQVRGGDKPAVDLYQLSPSEVKQLLLDILQPQQSGRCWLNRRQIDGSLNRTPPEFYDRVWQILERTPNGIVVAGKHLPQQPTLSDMTMYEMNFSLLVEDMLGNIDQPKYRQIIVELLMVVSIVLERNPELEFQDKVDLDRLVKEAFHEFQKDESRLKEIEKQDDMTSFYNTPPLGKRGTCSYLTKVVMNSLLEGEVKPSNEDSCLVS
Turning to B3, the binding entry in experiment [1] is listed as “binds”.

B4: Akr1e1 (Aldo-Keto Reductase Family 1 Member E) (protein, UniProt Q8CEB6 1-245)
chain: MENIPTVGLGTWKLWCTCHKKSLVKTACTNTLEALNLDYLDLYLIHWPMGFKPGEKDIPLDRNGKVIPSHTSFLDTWEAMEDLVFEGLVKNLGVSNFNHEQLERLLDKPGLRVRPITNQIECHPYLNQKKLIDFCHKRNVSVTAYRPLGGSGGGFHLMDDTVIRKIAKKHGKSPAQILIRFQIQRNLIVIPKSVTPSRIRENIQVFDFELTEKDMEELLSLDKNLRLATFPTTENHQDYPFHIEY
Consider B4, for which the binding entry in experiment [1] is listed as “binds”.

B5: Pgam1 (Phosphoglycerate mutase 1) (protein, UniProt Q9DBJ1 1-254)
chain: MAAYKLVLIRHGESAWNLENRFSGWYDADLSPAGHEEAKRGGQALRDAGYEFDICFTSVQKRAIRTLWTVLDAIDQMWLPVVRTWRLNERHYGGLTGLNKAETAAKHGEAQVKIWRRSYDVPPPPMEPDHPFYSNISKDRRYADLTEDQLPSCESLKDTIARALPFWNEEIVPQIKEGKRVLIAAHGNSLRGIVKHLEGLSEEAIMELNLPTGIPIVYELDKNLKPIKPMQFLGDEETVRKAMEAVAAQGKVKK
Take B5: the binding entry in experiment [1] is “binds”.

B6: Vat1 (protein, UniProt Q62465 1-406)
chain: MSAEREAAEAATVAAATEAGAETGTGAGEGAPSQPPTVEVASDPQPPPAPEASASASAPPLRCLVLTGFGGYDKVKLQSRPAVPPAPGPGQLTLRVRACGLNFADLMGRQGLYDRLPPLPVTPGMEGAGVVVAVGEGVGDRKAGDRVMVLNRSGMWQEEVTVPSAQTFLMPEAMTFEEAAALLVNYITAYMVLFDFGNLRPGHSVLVHMAAGGVGMAALQLCRTVENVTVFGTASASKHEVLKENGVTHPIDYHTTDYVDEIKKISPKGVDIVMDPLGGSDTAKGYHLLKPMGKVVTYGMANLLTGPKRNLMAMARTWWNQFSVTALQLLQANRAVCGFHLGYLDGEVELVNSVVTRLVALYNQGHIKPRIDSVWPFEKVADAMKQMQEKKNIGKVLLVPGPEKET
On to B6, for which, in experiment [1], the binding result was “binds”.

B7: Uqcrb (protein, UniProt Q9D855 1-111)
chain: MAGRSAVSASSKWLDGFRKWYYNAAGFNKLGLMRDDTLHETEDVKEAIRRLPEDLYNDRMLRIKRALDLTMRHQILPKDQWTKYEEDKFYLEPYLKEVIRERKEREEWAKK
Turning to B7, in experiment [1], the binding result is given as “binds”.

B8: Asns (Asparagine Synthetase) (protein, UniProt Q61024 1-561)
chain: MCGIWALFGSDDCLSVQCLSAMKIAHRGPDAFRFENVNGYTNCCFGFHRLAVVDPLFGMQPIRVRKYPYLWLCYNGEIYNHKALQQRFEFEYQTNVDGEIILHLYDKGGIEKTICMLDGVFAFILLDTANKKVFLGRDTYGVRPLFKAMTEDGFLAVCSEAKGLVSLKHSTTPFLKVEPFLPGHYEVLDLKPNGKVASVEMVKYHHCTDEPLHAIYDSVEKLFPGFDLETVKNNLRILFDNAIKKRLMTDRRIGCLLSGGLDSSLVAASLLKQLKEAQVQYPLQTFAIGMEDSPDLLAARKVANYIGSEHHEVLFNSEEGIQALDEVIFSLETYDITTVRASVGMYLISKYIRKNTDSVVIFSGEGSDELTQGYIYFHKAPSPEKAEEESERLLKELYLFDVLRADRTTAAHGLELRVPFLDHRFSSYYLSLPPDMRIPKNGIEKHLLRETFEDCNLLPKEILWRPKEAFSDGITSVKNSWFKILQDYVEHQVDDEMMSAASQKFPFNTPKTKEGYFYRQIFERHYPGRADWLTHYWMPKWINATDPSARTLTHYKSAAKA
As for B8, the binding result in experiment [1] is “binds”.

B9: Lyz2 (Lysozyme 2 or Lysozyme M) (protein, UniProt P08905 19-148)
chain: KVYERCEFARTLKRNGMAGYYGVSLADWVCLAQHESNYNTRATNYNRGDQSTDYGIFQINSRYWCNDGKTPRAVNACGINCSALLQDDITAAIQCAKRVVRDPQGIRAWVAWRAHCQNRDLSQYIRNCGV
Turning to B9, the binding result in experiment [1] is “binds”.

B10: Acaa2 (protein, UniProt Q8BWT1 1-397)
chain: MALLRGVFIVAAKRTPFGAYGGLLKDFSATDLTEFAARAALSAGKVPPETIDSVIVGNVMQSSSDAAYLARHVGLRVGVPTETGALTLNRLCGSGFQSIVSGCQEICSKDAEVVLCGGTESMSQSPYCVRNVRFGTKFGLDLKLEDTLWAGLTDQHVKLPMGMTAENLAAKYNISREDCDRYALQSQQRWKAANEAGYFNEEMAPIEVKTKKGKQTMQVDEHARPQTTLEQLQKLPSVFKKDGTVTAGNASGVSDGAGAVIIASEDAVKKHNFTPLARVVGYFVSGCDPTIMGIGPVPAINGALKKAGLSLKDMDLIDVNEAFAPQFLSVQKALDLDPSKTNVSGGAIALGHPLGGSGSRITAHLVHELRRRGGKYAVGSACIGGGQGIALIIQNTA
As to B10, the binding entry in experiment [1] is “binds”.

B11: Got2 (protein, UniProt P05202 30-430)
chain: SSWWTHVEMGPPDPILGVTEAFKRDTNSKKMNLGVGAYRDDNGKPYVLPSVRKAEAQIAAKNLDKEYLPIGGLAEFCKASAELALGENNEVLKSGRFVTVQTISGTGALRVGASFLQRFFKFSRDVFLPKPSWGNHTPIFRDAGMQLQGYRYYDPKTCGFDFSGALEDISKIPEQSVLLLHACAHNPTGVDPRPEQWKEIASVVKKKNLFAFFDMAYQGFASGDGDKDAWAVRHFIEQGINVCLCQSYAKNMGLYGERVGAFTVVCKDAEEAKRVESQLKILIRPLYSNPPLNGARIAATILTSPDLRKQWLQEVKGMADRIISMRTQLVSNLKKEGSSHNWQHITDQIGMFCFTGLKPEQVERLTKEFSVYMTKDGRISVAGVTSGNVGYLAHAIHQVTK
On to B11, for which the binding entry in experiment [1] is “binds”.

B12: Msr1 (Macrophage scavenger Receptor 1) (protein, UniProt P30204 1-458)
chain: MTKEMTENQRLCPHEQEDADCSSESVKFDARSMTASLPHSTKNGPSLQEKLKSFKAALIALYLLVFAVLIPVVGIVTAQLLNWEMKNCLVCSLNTSDTSQGPMEKENTSKVEMRFTIIMEHMKDMEERIESISNSKADLIDTERFQNFSMATDQRLNDILLQLNSLISSVQEHGNSLDAISKSLQSLNMTLLDVQLHTETLNVRVRESTAKQQEDISKLEERVYKVSAEVQSVKEEQAHVEQEVKQEVRVLNNITNDLRLKDWEHSQTLKNITFIQGPPGPQGEKGDRGLTGQTGPPGAPGIRGIPGVKGDRGQIGFPGGRGNPGAPGKPGRSGSPGPKGQKGEKGSVGGSTPLKTVRLVGGSGAHEGRVEIFHQGQWGTICDDRWDIRAGQVVCRSLGYQEVLAVHKRAHFGQGTGPIWLNEVMCFGRESSIENCKINQWGVLSCSHSEDAGVTCTS
Take B12: the binding result in experiment [1] was “binds”.

B13: Mcm5 (protein, UniProt P49718 1-734)
chain: MSGFDDPGIFYSDSFGGDPGAEEGQARKSQLQRRFKEFLRQYRVGTDRTGFTFKYRDELKRHYNLGEYWIEVEMEDLASFDEELADHLHKQPAEHLQLLEEAAKEVADEVTRPRPAGDELLQDIQVMLKSDASPSSIRILKSDMMSHLVKIPGIIISASAVRAKATRISIQCRSCHNTLTNIAMRPGLEGYALPRKCNMDQAGRPKCPLDPYFIMPDKCKCVDFQTLKLQELPDAVPHGEMPRHMQLYCDRYLCDKVVPGNRVTIMGIYSIKKFGLNPSKGRDRVGVGIRSSYIRVLGIQVDTDGSGRSFAGSVSPQEEEEFRRLAALPNIYELISKSISPSIFGGMDMKKAIACLLFGGSRKRLPDGLTRRGDINLLMLGDPGTAKSQLLKFVEKCSPIGVYTSGKGSSAAGLTASVIRDPSSRNFIMEGGAMVLADGGVVCIDEFDKMREDDRVAIHEAMEQQTISIAKAGITTTLNSRCSVLAAANSVFGRWDETKGEDNIDFMPTILSRFDMIFIVKDEHNEERDMMLAKHVMTLHVSALTQTQAVEGEIDLAKMKKFIAYCRARCGPRLSAEAAEKLKNRYIIMRSGARQHERDSDRRSSIPITVRQLEAIVRIAEALSKMKLQPFATEADVEEALRLFQVSTLDAALSGNLSGVEGFTTQEDQEMLSRIEKQLKRRFAIGSQVSEHSIVQDFTKQKYPEHAIRKVLQLMLRRGEIQHRMQRKVLYRLK
Consider B13, for which, in experiment [2], the binding result is listed as “binds”.
